Values from PubChem BioAssay AID652272 (Drosophila RNAi Screening Center, 2013).
In all, the deposit lists about 21,000 reagents; below is an unselected part of those with a known target gene and a result. Over the whole deposit, 503 (2.4%) were called active. 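Raw plate light values, not normalised; calls rest on replicate z-scores that were not deposited; hits include reporter decreases as well as increases.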 Reagents against one gene are numbered here. A plus sign joins genes that one reagent is predicted to hit. Not stated in the record: the amount of reagent, the time to read-out.

Screen: 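Genes whose knock-down decreases or increases Hedgehog reporter output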 (primary screen)
System: Drosophila clone 8 (Cl8) cells
Knock-down reagent: long dsRNA against Drosophila genes
Detection: 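Firefly light from a Hedgehog-responsive ptc promoter reporter and Renilla reference light, both read on a plate reader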
Direction: firefly Hh reporter signal: higher = more ptc reporter light; Renilla reference signal: higher = more Renilla control light
Rule for the call: 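Hit when the z-score averaged over two replicates is under -2 or over +3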
Calls: active = hit: reporter lowered or raised; inactive = not a hit

| firefly Hh reporter signal, replicate 1 | firefly Hh reporter signal, replicate 2 | firefly Hh reporter signal, replicate 3 | Renilla reference signal, replicate 1 | Renilla reference signal, replicate 2 | Outcome | Gene | reagent no. |
| --- | --- | --- | --- | --- | --- | --- | --- |
| 1.44e5 | 91056 | – | 4731 | 2965 | inactive | Max (GeneID 40095) | 1 |
| 1.52e5 | – | – | 3616 | – | inactive | lncRNA:CR43302 (GeneID 12798065) | 1 |
| 96864 | 67889 | – | 2816 | 5889 | inactive | CG10730 (GeneID 35291) | 1 |
| 94713 | 69856 | – | 2240 | 2016 | inactive | ZIPIC (GeneID 43566) | 1 |
| 1.24e5 | 70596 | – | 5634 | 3088 | inactive | CG8586 (GeneID 35854) | 1 |
| 48355 | 1.64e5 | – | 1191 | 6457 | inactive | COX1 (retired record) (GeneID 192469) | 1 |
| 70007 | 1.82e5 | – | 2007 | 8073 | inactive | Obp50d (GeneID 246436) | 1 |
| 76829 | 1.02e5 | – | 1600 | 8096 | inactive | CG4741 (GeneID 37939) | 1 |
| 77824 | 44532 | – | 1446 | 3709 | inactive | CG4741 (GeneID 37939) | 2 |
| 1.53e5 | 80204 | – | 6053 | 3496 | inactive | NKCC (GeneID 40663) | 1 |
| 52323 | 1.02e5 | – | 2225 | 2868 | inactive | NKCC (GeneID 40663) | 2 |
| 6.26e5 | 1.67e5 | 1.08e5 | 1634 | 5024 | inactive | Dab (GeneID 39866) | 1 |
| 43452 | 51995 | – | 2164 | 2229 | inactive | CG6495 (GeneID 34486) | 1 |
| 97339 | 44167 | – | 2384 | 2226 | inactive | mRpS16 (GeneID 36570) | 1 |
| 59963 | 40873 | – | 6377 | 3281 | inactive | ltl (GeneID 38845) | 1 |
| 47364 | 34333 | – | 6195 | 2368 | inactive | ltl (GeneID 38845) | 2 |
| 1.07e5 | 90304 | – | 4507 | 840 | inactive | CG15564 (GeneID 43696) | 1 |
| 4.23e5 | 2.27e5 | – | 24951 | 4144 | inactive | bif (GeneID 32119) | 1 |
| 95508 | 81642 | – | 1936 | 1817 | inactive | bif (GeneID 32119) | 2 |
| 92034 | 50379 | – | 2365 | 4800 | inactive | CG3008 (GeneID 33693) | 1 |
| 1.01e5 | 2.47e5 | – | 2701 | 11072 | inactive | CG30076 (GeneID 246438) | 1 |
| 4.03e5 | 77301 | – | 2994 | 2994 | inactive | AttD (GeneID 42122) | 1 |
| 54609 | 74352 | – | 2744 | 3228 | inactive | ck (GeneID 34882) | 1 |
| 96170 | 60832 | – | 4507 | 2582 | inactive | Idgf5 (GeneID 37104) | 1 |
| 71027 | 44844 | – | 3873 | 2506 | inactive | CG10479 (GeneID 38674) | 1 |
| 1.00e5 | 84346 | – | 2764 | 7296 | inactive | CG3788 (GeneID 37644) | 1 |
| 2.46e5 | 42160 | – | 15248 | 1824 | inactive | Xrp1 (GeneID 42267) | 1 |
| 5.31e5 | 1.34e5 | – | 22689 | 3491 | inactive | Xrp1 (GeneID 42267) | 2 |
| 95229 | 53713 | – | 4247 | 1405 | inactive | CG13325 (GeneID 36437) | 1 |
| 1.25e5 | 5.76e5 | 2.53e5 | 4134 | 4458 | inactive | CG10597 (GeneID 32714) | 1 |
| 91510 | 57325 | – | 2778 | 4195 | inactive | CG1299 (GeneID 38496) | 1 |
| 5.20e5 | 2.42e5 | – | 30887 | 5184 | inactive | l(3)80Fj (GeneID 3355040) | 1 |
| 62428 | 4.09e5 | – | 1003 | 13152 | inactive | l(3)80Fj (GeneID 3355040) | 2 |
| 1.01e5 | 56938 | – | 3939 | 2136 | inactive | Adck1 (GeneID 37938) | 1 |
| 1.51e5 | 1.19e5 | – | 6848 | 4640 | inactive | stau (GeneID 37065) | 1 |
| 71968 | 1.36e5 | – | 2348 | 4058 | inactive | CG6951 (GeneID 40222) | 1 |
| 67749 | 33341 | – | 1559 | 3418 | inactive | TpnC4 (GeneID 35498) | 1 |
| 36056 | 57333 | – | 1629 | 2579 | inactive | Pka-C2 (GeneID 43644) | 1 |
| 1.18e5 | 69540 | – | 4983 | 3208 | inactive | Ent1 (GeneID 33207) | 1 |
| 83932 | 47328 | – | 1908 | 3808 | inactive | Tret1-1 (GeneID 36248) | 1 |
| 61899 | 40865 | – | 1648 | 3568 | inactive | Tret1-1 (GeneID 36248) | 2 |
| 2.62e5 | 2.13e5 | – | 10146 | 6880 | inactive | B52 (GeneID 41670) | 1 |
| 95680 | 1.03e5 | – | 3275 | 2743 | inactive | CG5167 (GeneID 41521) | 1 |
| 96954 | 54235 | – | 2261 | 4579 | inactive | Tsp42Ea (GeneID 59178) | 1 |
| 94448 | 51081 | – | 2407 | 4537 | inactive | Tsp42Ea (GeneID 59178) | 2 |
| 1.67e5 | – | – | 8721 | 4341 | inactive | TSG101 (GeneID 39881) | 1 |
| 54436 | 80624 | – | 1830 | 2180 | inactive | pch2 (GeneID 41013) | 1 |
| 48378 | 2.82e5 | – | 10420 | 5649 | inactive | lncRNA:iab8 (GeneID 12798430) | 1 |
| 1.01e5 | 1.95e5 | – | 2634 | 8162 | inactive | CG33234 (GeneID 2769006) | 1 |
| 59788 | 48906 | – | 1274 | 4220 | inactive | CG4882 (GeneID 37787) | 1 |
| 4.77e5 | 2.37e5 | – | 30019 | 4739 | inactive | CG33502 + CG32857 + CG32500 | 1 |
| 44327 | 2.31e5 | – | 1004 | 10032 | inactive | CG33502 + CG32857 + CG32500 | 2 |
| 4.49e5 | 87538 | – | 4460 | 4460 | inactive | Hydr1 (GeneID 35930) | 1 |
| 54594 | 56987 | – | 6435 | 4235 | inactive | t-Grip84 (GeneID 38852) | 1 |
| 1.12e5 | 1.19e5 | – | 3654 | 2844 | inactive | Ser (GeneID 43275) | 1 |
| 88375 | 1.06e5 | – | 1782 | 2597 | inactive | CG9672 (GeneID 32651) | 1 |
| 36848 | 31200 | 51792 | 5360 | 4795 | inactive | Sap130 (GeneID 39455) | 1 |
